PubChem BioAssay AID743121, NCATS, 2013

Purpose: 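Partners whose loss is lethal together with topoisomerase I blockade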 (primary screen)
Cells: MDA-MB-231 cells, a human breast cancer line
Reagent: single siRNA against human genes, 20 nM siRNA (0.8 pmol per well)
Timing: 120 h (drug added 48 h after transfection, read 72 h later)
Conditions: camptothecin 20 nM (about EC30) for 72 h; vehicle 0.1% DMSO in parallel plates
Measurement: 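CellTiter-Glo ATP signal, scaled to control siRNA as percent viability; sensitisation given as log2 of untreated divided by camptothecin-treated viability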
Direction: log2 vehicle/camptothecin viability: higher = stronger sensitisation to camptothecin; viability with camptothecin and viability without drug: higher = more viable cells
Active means: 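Each gene scored by redundant siRNA activity (RSA) over its individual siRNA ratios; a gene is called active at p < 0.001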
Here is an unselected part of about 26,000 deposited reagents. 167 of all reagents (0.63%) were called active. 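Calls are per gene from RSA p-values that are not deposited; an individual active-marked siRNA can sensitise only weakly.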 Entries without a mark were called inactive. The numbers tell different reagents against one gene apart.

gene	reagent	log2 vehicle/camptothecin viability	viability with camptothecin (% of control)	viability without drug (% of control)
TNFAIP3 (TNF alpha induced protein 3)	1	-0.0487	39	37.7
TNFAIP3 (TNF alpha induced protein 3)	2	0.811	34.3	60.2
TNFAIP3 (TNF alpha induced protein 3)	3	0.0276	40.4	41.2
MED13 (mediator complex subunit 13)	1	0.598	34.7	52.5
MED13 (mediator complex subunit 13)	2	-0.31	106	85.6
MED13 (mediator complex subunit 13)	3	-0.188	54.9	48.2
MED13 (mediator complex subunit 13)	4	-0.276	63.2	52.2
MC2R (melanocortin 2 receptor)	1	-0.27	113	93.9
MC2R (melanocortin 2 receptor)	2	-0.395	41.2	31.4
MC2R (melanocortin 2 receptor)	3	0.62	37.8	58
MC2R (melanocortin 2 receptor)	4	-0.0835	45.5	42.9
DEFA3 (defensin alpha 3)	1	-0.07	99.2	94.5
CXCL14 (C-X-C motif chemokine ligand 14)	1	0.0901	85.9	91.4
CXCL14 (C-X-C motif chemokine ligand 14)	2	-0.0871	94.3	88.7
CXCL14 (C-X-C motif chemokine ligand 14)	3	0.154	81.1	90.3
FMOD (fibromodulin)	1	-0.144	55.2	49.9
FMOD (fibromodulin)	2	-0.591	5.54	3.68
FMOD (fibromodulin)	3	-0.0503	80.3	77.5
MYOC (myocilin)	1	-0.084	102	96.3
MYOC (myocilin)	2	0.377	31.1	40.4
MYOC (myocilin)	3	-0.0859	69.7	65.7
MYOC (myocilin)	4	-0.327	85.8	68.5
INPP5D (inositol polyphosphate-5-phosphatase D)	1	-0.278	72.3	59.6
INPP5D (inositol polyphosphate-5-phosphatase D)	2	0.503	56.1	79.4
INPP5D (inositol polyphosphate-5-phosphatase D)	3	0.22	83.7	97.5
INPP5D (inositol polyphosphate-5-phosphatase D)	4	0.321	50	62.4
HHEX (hematopoietically expressed homeobox)	1	0.136	93.4	103
HHEX (hematopoietically expressed homeobox)	2	0.362	39.5	50.8
HHEX (hematopoietically expressed homeobox)	3	0.051	99	103
HHEX (hematopoietically expressed homeobox)	4	0.00681	70.5	70.8
PRDX6 (peroxiredoxin 6)	1	1.2	38.1	87.6
PRDX6 (peroxiredoxin 6)	2	-0.0594	110	106
PRDX6 (peroxiredoxin 6)	3	-0.32	56.6	45.3
PRDX6 (peroxiredoxin 6)	4	0.187	69.6	79.3
SULF2 (sulfatase 2)	1	-0.185	59	51.9
SULF2 (sulfatase 2)	2	0.337	68.4	86.4
SULF2 (sulfatase 2)	3	-0.4	18.2	13.8
SULF2 (sulfatase 2)	4	0.657	46.4	73.2
LRRC47 (leucine rich repeat containing 47)	1	0.29	56.5	69.1
LRRC47 (leucine rich repeat containing 47)	2	0.0856	84	89.1
LRRC47 (leucine rich repeat containing 47)	3	-0.146	99.9	90.3
LRRC47 (leucine rich repeat containing 47)	4	-0.454	91	66.4
GNG12 (G protein subunit gamma 12)	1	-0.31	91.3	73.6
GNG12 (G protein subunit gamma 12)	2	-0.3	108	87.6
GNG12 (G protein subunit gamma 12)	3	0.805	37.9	66.2
IL25 (interleukin 25)	1	-0.368	68	52.7
IL25 (interleukin 25)	2	-0.371	126	97.8
IL25 (interleukin 25)	3	0.261	80.4	96.3
IL25 (interleukin 25)	4	-0.176	103	91.6

A run of entries from the list above, as a working copy:
gene	reagent	log2 vehicle/camptothecin viability	viability with camptothecin (% of control)	viability without drug (% of control)
MC2R (melanocortin 2 receptor)	3	0.62	37.8	58
MC2R (melanocortin 2 receptor)	4	-0.0835	45.5	42.9
DEFA3 (defensin alpha 3)	1	-0.07	99.2	94.5
CXCL14 (C-X-C motif chemokine ligand 14)	1	0.0901	85.9	91.4
CXCL14 (C-X-C motif chemokine ligand 14)	2	-0.0871	94.3	88.7
CXCL14 (C-X-C motif chemokine ligand 14)	3	0.154	81.1	90.3
FMOD (fibromodulin)	1	-0.144	55.2	49.9
FMOD (fibromodulin)	2	-0.591	5.54	3.68

The results go on:
gene	reagent	log2 vehicle/camptothecin viability	viability with camptothecin (% of control)	viability without drug (% of control)
STAT1 (signal transducer and activator of transcription 1)	1	0.288	87.5	107
STAT1 (signal transducer and activator of transcription 1)	2	-0.0435	102	99.1
STAT1 (signal transducer and activator of transcription 1)	3	0.4	63.7	84
STAT1 (signal transducer and activator of transcription 1)	4	0.504	50.1	71
AKAP13 (A-kinase anchoring protein 13)	1	-0.57 (active)	78	52.6
AKAP13 (A-kinase anchoring protein 13)	2	1.09 (active)	22.3	47.3
AKAP13 (A-kinase anchoring protein 13)	3	0.259 (active)	66.1	79.1
AKAP13 (A-kinase anchoring protein 13)	4	0.997 (active)	42.2	84.2
KIF24 (kinesin family member 24)	1	-0.337	110	87.3
KIF24 (kinesin family member 24)	2	-0.283	83.8	68.9
KIF24 (kinesin family member 24)	3	-0.486	102	73.1
SOCS7 (suppressor of cytokine signaling 7)	1	0.438	59.1	80.1
SOCS7 (suppressor of cytokine signaling 7)	2	-0.484	87.4	62.5
SOCS7 (suppressor of cytokine signaling 7)	3	-0.0138	64.5	63.9
SOCS7 (suppressor of cytokine signaling 7)	4	-0.0386	105	102
MYLK3 (myosin light chain kinase 3)	1	-0.126	56.2	51.5
MYLK3 (myosin light chain kinase 3)	2	-0.468	97.1	70.2
MYLK3 (myosin light chain kinase 3)	3	0.0796	43.4	45.8
MYLK3 (myosin light chain kinase 3)	4	-0.0595	84.7	81.3
PDIA2 (protein disulfide isomerase family A member 2)	1	-0.452	81.4	59.5
PDIA2 (protein disulfide isomerase family A member 2)	2	-0.213	69.9	60.3
PDIA2 (protein disulfide isomerase family A member 2)	3	-0.291	46.3	37.9
PDIA2 (protein disulfide isomerase family A member 2)	4	-0.514	138	96.5
DHCR7 (7-dehydrocholesterol reductase)	1	-0.269	82.1	68.1
DHCR7 (7-dehydrocholesterol reductase)	2	-0.112	68.6	63.4
DHCR7 (7-dehydrocholesterol reductase)	3	-0.525	68.1	47.3
YWHAH	1	-0.219	66.1	56.8
YWHAH	2	-0.0842	96.1	90.7
YWHAH	3	0.0245	81.6	83
YWHAH	4	0.0493	49.1	50.8
PITPNM2 (phosphatidylinositol transfer protein membrane associated 2)	1	-0.218	38.2	32.8
PITPNM2 (phosphatidylinositol transfer protein membrane associated 2)	2	0.32	59.2	73.9
PITPNM2 (phosphatidylinositol transfer protein membrane associated 2)	3	-0.0271	74.5	73.1
PITPNM2 (phosphatidylinositol transfer protein membrane associated 2)	4	0.017	46.1	46.6
SMC2 (structural maintenance of chromosomes 2)	1	-0.167	95.1	84.6
SMC2 (structural maintenance of chromosomes 2)	2	-0.11	103	95.1
SMC2 (structural maintenance of chromosomes 2)	3	-0.027	72.5	71.2
SMC2 (structural maintenance of chromosomes 2)	4	-0.383	46.5	35.7
